From PubChem BioAssay AID504842 (National Center for Advancing Translational Sciences (NCATS), 2011)
About 100 (0.03%) of roughly 330,000 compounds were called active. This list was built around the results that the source calls inconclusive (neither active nor inactive); the mix of calls is not that of the screen. The call rests on the fitted dose curve; in most records, active means well fitted inhibition curve with a large enough effect; inconclusive means small, poorly fitted or top-dose-only effect; inactive means flat fitted curve, though single readings scatter. Potencies beside an inconclusive call are fits to weak or partial responses and may not hold up.

system: Chaperonin Mm-Cpn (Methanococcus maripaludis); test: Inhibitors of TCP-1 ring complex (TRiC) of Methanococcus maripaludis (MmCpn): qHTS; conditions: purified Mm-Cpn ATPase, ADP Transcreener TR-FRET; series mostly up to 76.9 µM; activity, negative = inhibition: at the top concentration; further: nearly all actives have a fitted effect of over 80% in size;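 on Potency: enzyme at 25 nM with ATP substrate at 10 µM during the reaction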
In short: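 25 nM Mm-CPN + cpd, 10 min 37°C; + 10 uM ATP, 30 min 37°C; buffer 30 mM Tris pH 7.4, 100 mM KCl, 5 mM MgCl2, 1 mM DTT; Transcreener ADP HTRF detection 30 min RT.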
On the % scale 0 is the no-effect control and ±100 the full control effect; potency means the concentration at half of the fitted maximal effect.

Q: For `COc1cccc(NC(=O)Cc2nc(-c3ccccc3)sc2-c2ccc(C)cc2)c1`, which Potency is on record?
A: The Potency was active: 39.8 µM.

Q: Which “activity, negative = inhibition” value does the source give for `COc1ccccc1NC(=S)N(Cc1ccc(C(=O)O)cc1)Cc1ccc(OC)c(OC)c1` here?
A: The value was inactive: 3.11%.

Q: Which Potency does the source give for `C=CCNC(=O)C1CCN(c2c([N+](=O)[O-])cc(C(F)(F)F)cc2[N+](=O)[O-])CC1` here?
A: The Potency was inconclusive: 10 µM [inhibitor, partial curve, poor fit].

Q: Which Potency does the source give for `CN1c2ccccc2C(C)(C)C12CC(c1ccc(S(=O)(=O)N3CCCCC3)cc1)=NO2` (centres undefined) here?
A: The Potency was inconclusive: 89.1 µM [inhibitor, single point].

Q: How did the Potency turn out when `COc1ccc(C)cc1-n1c(SCC(=O)NCC2CCCO2)nc2c([nH]c3ccccc32)c1=O` (centres undefined) was run?
A: The Potency was inconclusive: 79.4 µM [inhibitor, single point].

Q: Which Potency does the source give for `CC(C)=CCN1CCN(Cc2nc(C(C)C)cs2)CC1CCO` (centres undefined) here?
A: The Potency was inconclusive: 100 µM [inhibitor, single point].

Q: Which “activity, negative = inhibition” value does the source give for `Cc1ccc(Cl)cc1NC(=O)CC(O)(C(F)(F)F)C(F)(F)F` here?
A: The value was inactive: -2.24%.

Q: `C=CCn1c(C)c(C(C)=O)c(N2CCN(C(c3ccccc3)c3ccccc3)CC2)nc1=S` was tested. Which Potency did it give?
A: The Potency was inconclusive: 22.4 µM [inhibitor, single point].

Q: With `OCCC#Cc1c(-c2ccsc2)sc2ccccc12` as the molecule, how does the Potency read?
A: Its Potency is inconclusive: 562 µM [inhibitor, partial curve, poor fit].

Q: With `C=CC[C@H](CC(=O)N(CCO)Cc1ccccc1)C(=O)NCCOC(=O)[C@H](CC=C)CC(=O)OC(C)(C)C` as the molecule, how does the Potency read?
A: The Potency was inconclusive: 10 µM [inhibitor, single point].

Q: `Cn1c(=O)n(CC(=O)N2CCN(c3nnc(-c4ccccc4)c4ccccc34)CC2)c2ccccc21` was tested. Which Potency did it give?
A: Its Potency is inconclusive: 178 µM [inhibitor, partial curve, poor fit].

Q: With `CCOc1ccccc1C(=O)Nc1ccsc1C(=O)OC` as the molecule, how does the Potency read?
A: The Potency was inconclusive: 22.4 µM [inhibitor, single point].

Q: For `N#Cc1c(NC(=O)COC(=O)c2ccc(S(=O)(=O)N3CCCC3)cc2)sc2c1CCCCC2`, which Potency is on record?
A: Its Potency is inconclusive: 89.1 µM [inhibitor, single point].

Q: For `Cc1ccc(NC(=O)c2sc3ncnc(N4CCN(c5ccccn5)CC4)c3c2C)c(C)c1`, which Potency is on record?
A: The Potency was inconclusive: 112 µM [inhibitor, single point].

Q: Which Potency does the source give for `CN(CCC#N)CC(=O)Nc1ccc(S(N)(=O)=O)cc1` here?
A: Its Potency is inconclusive: 22.4 µM [inhibitor, single point].

Q: With `C[C@]12c3[nH]c4ccccc4c3CCN1C(=O)C(CC(=O)NCCC1=CCCCC1)C[C@@H]2C(=O)N1CCCCC1` (some centres undefined) as the molecule, how does the Potency read?
A: Its Potency is inconclusive: 14.1 µM [inhibitor, single point].

Q: `CC(OC(=O)c1cc2ccccc2cc1O)C(=O)Nc1ccc(S(N)(=O)=O)cc1` (centres undefined) was tested. Which Potency did it give?
A: Its Potency is inconclusive: 70.8 µM [inhibitor, single point].

Q: For `O=C(Cc1cccc2ccccc12)Nc1ccc(-c2cc3ccccc3oc2=O)cc1`, which Potency is on record?
A: Its Potency is inconclusive: 112 µM [inhibitor, partial curve, poor fit].

Q: With `C=CCN(C(=O)CSc1nc2c(sc3ccccc32)c(=O)n1CCN(CC)CC)c1ccccc1` as the molecule, how does the “activity, negative = inhibition” value read?
A: The value was inactive: -1.04%.

Q: How did the Potency turn out when `C=CCn1c(=S)[nH]c2scc(-c3cccs3)c2c1=O` was run?
A: The Potency was active: 50.1 µM.

Q: For `CCCc1cc(N2CCOCC2)n2nc(C)c(-c3ccccc3)c2n1`, which “activity, negative = inhibition” value is on record?
A: Its value is inactive: -0.34%.

Q: Which “activity, negative = inhibition” value does the source give for `CCn1ccc(C(=O)Nc2ccccc2Cl)n1` here?
A: Its value is inactive: -5.79%.

Q: `CCOC(=O)c1sc(C)c2c1NC(C)(c1ccccc1)NC2=O` (centres undefined) was tested. Which “activity, negative = inhibition” value did it give?
A: The value was inactive: -20.4%.

Q: For `Cc1cc2[nH]c(=O)c(=O)[nH]c2cc1S(=O)(=O)Nc1cccc(Cl)c1`, which Potency is on record?
A: Its Potency is inconclusive: 22.4 µM [inhibitor, single point].

Q: How did the “activity, negative = inhibition” value turn out when `O=C(Cc1ccc(F)cc1)N1CCC(CC2CC(c3cccc(Br)c3)=NO2)(C(=O)NCC2CCCCC2)CC1` (centres undefined) was run?
A: The value was inactive: -6.86%.

Q: How did the Potency turn out when `Cc1cccc(N=C2NC(=O)/C(=C\c3cccs3)S2)c1` was run?
A: The Potency was inconclusive: 12.6 µM [inhibitor, single point].

Q: `CCCSC1=N/C(=C\c2ccc3c(c2)OCO3)C(=O)S1` was tested. Which “activity, negative = inhibition” value did it give?
A: The value was inactive: -0.312%.

Q: Which Potency does the source give for `O=C(Cn1c(=O)[nH]c2ccsc2c1=O)NC1CCCCC1` here?
A: Its Potency is inconclusive: 50.1 µM [inhibitor, single point].

Q: Which Potency does the source give for `Cc1cccc(N(CC(=O)Nc2ccccc2F)S(C)(=O)=O)c1` here?
A: The Potency was inconclusive: 28.2 µM [inhibitor, single point].

Q: `CC(C)Cn1c(N)c(C(=O)CSc2cc(Cl)ccc2Cl)c(=O)n(C)c1=O` was tested. Which Potency did it give?
A: The Potency was inconclusive: 100 µM [inhibitor, partial curve, poor fit].

Q: How did the “activity, negative = inhibition” value turn out when `C/C(Cc1ccccc1)=N\NC(=O)CNC(=O)c1ccc(Cl)cc1` was run?
A: The value was inactive: 0.301%.

Q: Which “activity, negative = inhibition” value does the source give for `c1ccc(C(Cc2nc(-c3ccccn3)no2)c2ccccc2)cc1` here?
A: The value was inactive: 0.347%.

Q: `Cc1ccc(-c2cc3nc(-c4ccc(Br)cc4)cc(N)n3n2)cc1` was tested. Which “activity, negative = inhibition” value did it give?
A: The value was inactive: -10.4%.

Q: For `COc1ccc(CCn2c(C)cc(C(=O)CSc3nnc(N)s3)c2C)cc1`, which “activity, negative = inhibition” value is on record?
A: The value was inactive: -3.95%.

Q: `O=C(COC(=O)c1ccc(-c2ccccc2)cc1)Nc1ccccc1-c1ccccc1` was tested. Which “activity, negative = inhibition” value did it give?
A: Its value is inactive: -8.2%.

Q: How did the Potency turn out when `OCCC1CN(Cc2ccccc2-c2ccco2)CCN1C1CCCC1` (centres undefined) was run?
A: Its Potency is inconclusive: 25.1 µM [inhibitor, single point].

Q: For `COc1ccc(C(=O)CN2C(=O)c3ccccc3S2(=O)=O)cc1Br`, which Potency is on record?
A: Its Potency is inconclusive: 100 µM [inhibitor, single point].

Q: How did the Potency turn out when `COc1ccc(/C=C/c2nc(S(=O)(=O)c3ccccc3)c(N(C)C)o2)cc1OC` was run?
A: Its Potency is inconclusive: 20 µM [inhibitor, single point].

Q: `CCOc1ccc(Br)cc1S(=O)(=O)NCCN1CCCC1` was tested. Which Potency did it give?
A: Its Potency is inconclusive: 100 µM [inhibitor, single point].

Q: `CC#CC(=O)N1CCCC(Cc2cccc(OC)c2)(C(=O)OCC)C1` (centres undefined) was tested. Which Potency did it give?
A: Its Potency is inconclusive: 112 µM [inhibitor, single point].

Q: For `COc1ccc(S(=O)(=O)N2CCN(C(=O)c3oc4ccccc4c3C)CC2)cc1`, which “activity, negative = inhibition” value is on record?
A: Its value is inactive: -8.03%.

Q: With `CC(C)(C)OC(=O)N1CCN(C(=O)c2nc[nH]c2C(=O)N2CCN(c3ccccc3)CC2)CC1` as the molecule, how does the Potency read?
A: Its Potency is inconclusive: 63.1 µM [inhibitor, single point].

Q: `CCN(CC)Cc1c(O)ccc2occ(C(=O)c3ccc(OC)cc3)c12` was tested. Which Potency did it give?
A: Its Potency is inconclusive: 22.4 µM [inhibitor, single point].

Q: For `CNC(=S)N1N=C(c2ccc(C)cc2)CC1c1ccc(N(C)C)cc1` (centres undefined), which Potency is on record?
A: The Potency was active: 25.1 µM.

Q: `O=C(CCN1C(=O)C2C3CCC(C3)C2C1=O)OCC(=O)c1cccc([N+](=O)[O-])c1` (centres undefined) was tested. Which Potency did it give?
A: The Potency was inconclusive: 12.6 µM [inhibitor, single point].

Q: `COc1ccccc1C1=NNC(=Nc2cccc(S(=O)(=O)N(C)C)c2)SC1` was tested. Which “activity, negative = inhibition” value did it give?
A: The value was inactive: 1.5%.

Q: For `CC(=O)Nc1cccc(NC(=O)c2cc(-c3cccnc3)nc3ccc(Cl)cc23)c1`, which Potency is on record?
A: Its Potency is inconclusive: 20 µM [inhibitor, single point].

Q: For `COc1cccc(NC(=O)CN(C)C(=O)c2cc(-c3cccc(Br)c3)nc3ccccc23)c1`, which Potency is on record?
A: The Potency was inconclusive: 79.4 µM [inhibitor, single point].

Q: Which Potency does the source give for `Cc1ccc(C(O)(CCN2CCCCC2)c2ccccc2)cc1` (centres undefined) here?
A: Its Potency is inconclusive: 56.2 µM [inhibitor, single point].

Q: How did the Potency turn out when `COc1ccc2[nH]c(C(=O)Nc3ccc(C)c(F)c3)cc2c1` was run?
A: Its Potency is inconclusive: 79.4 µM [inhibitor, single point].

Q: Which “activity, negative = inhibition” value does the source give for `NS(=O)(=O)c1cc2c(cc1Cl)NC(Cc1ccccc1)NS2(=O)=O` (centres undefined) here?
A: The value was inactive: 1.39%.

Q: `COc1cc2c(cc1NC(=O)CN(C)Cc1cccc(OC)c1OC)oc1ccccc12` was tested. Which Potency did it give?
A: Its Potency is inconclusive: 224 µM [inhibitor, partial curve, poor fit].

Q: Which “activity, negative = inhibition” value does the source give for `CC(C)COCC(O)CCC(=O)NNC(=S)Nc1ccccc1` (centres undefined) here?
A: Its value is inactive: -0.346%.

Q: `Cc1c(C(=O)Nc2ccc3c(c2)OCO3)oc2ccccc12` was tested. Which “activity, negative = inhibition” value did it give?
A: Its value is inactive: 1.77%.

Q: `CCOC(=O)C1(Cc2cccc(F)c2)CCN(C(=O)C2CCOCC2)CC1` was tested. Which Potency did it give?
A: Its Potency is inconclusive: 8.91 µM [inhibitor, single point].

Q: With `C=CCn1c2ccccc2c(=O)c2cc(C#Cc3cc(OC)cc(OC)c3)ccc21` as the molecule, how does the Potency read?
A: Its Potency is inconclusive: 10 µM [inhibitor, partial curve, poor fit].

Q: `COc1nccnc1NS(=O)(=O)c1ccc(N=Cc2c(C)[nH]n(-c3ccccc3)c2=O)cc1` was tested. Which “activity, negative = inhibition” value did it give?
A: Its value is inactive: -1.25%.

Q: For `CCCn1c(SCC(=O)NCc2ccc(F)cc2)n[nH]c1=O`, which “activity, negative = inhibition” value is on record?
A: The value was inactive: -5.08%.

Q: `Cc1ccc(C(=O)Nc2nc3ccccc3s2)s1` was tested. Which Potency did it give?
A: The Potency was inconclusive: 89.1 µM [inhibitor, single point].

Q: For `CC(C)n1c(=S)[nH]c2scc(-c3cccs3)c2c1=O`, which Potency is on record?
A: Its Potency is inconclusive: 112 µM [inhibitor, partial curve, poor fit].

Q: Which Potency does the source give for `Fc1ccc(CNC(=S)NC2CCCCCC2)cc1` here?
A: Its Potency is inconclusive: 79.4 µM [inhibitor, partial curve].

Q: Which “activity, negative = inhibition” value does the source give for `O=C(CSc1nc2ccc([N+](=O)[O-])cc2[nH]1)NC1CCCCCC1` here?
A: The value was inactive: -0.24%.

Q: With `O=C(Nc1cccc(NC(=O)c2cccs2)c1)c1cccnc1` as the molecule, how does the Potency read?
A: Its Potency is inconclusive: 11.2 µM [inhibitor, single point].

Q: With `CN(C)S(=O)(=O)NCCNc1ccc(C(F)(F)F)cc1[N+](=O)[O-]` as the molecule, how does the Potency read?
A: The Potency was inconclusive: 56.2 µM [inhibitor, single point].

Q: `O=C(Cc1ccc(-n2cccc2)cc1)NC1CCCCCC1` was tested. Which Potency did it give?
A: Its Potency is inconclusive: 44.7 µM [inhibitor, single point].

Q: `COc1ccc([N+](=O)[O-])cc1NC(=O)c1cn(-c2ccc(C)c(C)c2)c(=O)c2ccccc12` was tested. Which Potency did it give?
A: The Potency was inconclusive: 20 µM [inhibitor, single point].

Q: How did the “activity, negative = inhibition” value turn out when `O=C(COc1ccc2ccc(=O)oc2c1)Nc1cccc(S(=O)(=O)N2CCCCC2)c1` was run?
A: The value was inactive: -6.46%.

Q: `O=C1/C(=C/c2ccc(O)cc2)SC(=S)N1Cc1cccnc1` was tested. Which Potency did it give?
A: The Potency was inconclusive: 79.4 µM [inhibitor, single point].

Q: With `Cc1ccc(C)c(OCc2nc(-c3cccnc3)no2)c1` as the molecule, how does the “activity, negative = inhibition” value read?
A: The value was inactive: -0.173%.
